Measured values published in paper PMC5216374.
No constants are given. Whether binding was seen depends on the method and setting. In cells and extracts the contact can be indirect. Here binding means that the protein was enriched with, or labelled near, the bait; the list need not be complete. Sequences can lack the tags named with a protein. One block for each binder: values may come before it.

Molecular target: T1, full length TRIM14 ORF tagged at the C-terminus with 3xFLAG (human) (UniProt Q14142)
T1 sequence: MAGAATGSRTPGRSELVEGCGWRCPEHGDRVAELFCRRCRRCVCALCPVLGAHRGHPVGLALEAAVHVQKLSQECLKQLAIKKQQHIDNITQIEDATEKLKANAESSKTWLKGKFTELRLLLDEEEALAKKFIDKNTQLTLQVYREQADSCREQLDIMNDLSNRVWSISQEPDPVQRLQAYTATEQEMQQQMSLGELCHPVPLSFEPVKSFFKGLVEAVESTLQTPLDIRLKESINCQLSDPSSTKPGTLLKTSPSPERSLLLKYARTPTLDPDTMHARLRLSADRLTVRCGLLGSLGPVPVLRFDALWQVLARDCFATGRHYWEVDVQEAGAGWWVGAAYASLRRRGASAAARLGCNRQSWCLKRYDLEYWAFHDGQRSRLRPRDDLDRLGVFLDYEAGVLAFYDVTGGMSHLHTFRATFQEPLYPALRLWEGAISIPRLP
Test: affinity purification with mass spectrometry; anti-FLAG affinity gel IP of C-terminally 3xFLAG-tagged TRIM14 from HEK293T lysate 48 h after transfection, overnight at 4 °C; eluted with 0.15% TFA, trypsin, LC-MS/MS; proteins also found with empty FLAG vector excluded; hits seen in at least 2 of 3 biological experiments

- binding: binds
B1: DNA polymerase delta subunit 3 (protein, UniProt Q15054 1-466)
chain: MADQLYLENIDEFVTDQNKIVTYKWLSYTLGVHVNQAKQMLYDYVERKRKENSGAQLHVTYLVSGSLIQNGHSCHKVAVVREDKLEAVKSKLAVTASIHVYSIQKAMLKDSGPLFNTDYDILKSNLQNCSKFSAIQCAAAVPRAPAESSSSSKKFEQSHLHMSSETQANNELTTNGHGPPASKQVSQQPKGIMGMFASKAAAKTQETNKETKTEAKEVTNASAAGNKAPGKGNMMSNFFGKAAMNKFKVNLDSEQAVKEEKIVEQPTVSVTEPKLATPAGLKKSSKKAEPVKVLQKEKKRGKRVALSDDETKETENMRKKRRRIKLPESDSSEDEVFPDSPGAYEAESPSPPPPPSPPLEPVPKTEPEPPSVKSSSGENKRKRKRVLKSKTYLDGEGCIVTEKVYESESCTDSEEELNMKTSSVHRPPAMTVKKEPREERKGPKKGTAALGKANRQVSITGFFQRK

- binding: binds
B2: RNA polymerase II-associated protein 1 (protein, UniProt Q9BWH6 1-1393)
chain: MLSRPKPGESEVDLLHFQSQFLAAGAAPAVQLVKKGNRGGGDANSDRPPLQDHRDVVMLDNLPDLPPALVPSPPKRARPSPGHCLPEDEDPEERLRRHDQHITAVLTKIIERDTSSVAVNLPVPSGVAFPAVFLRSRDTQGKSATSGKRSIFAQEIAARRIAEAKGPSVGEVVPNVGPPEGAVTCETPTPRNQGCQLPGSSHSFQGPNLVTGKGLRDQEAEQEAQTIHEENIARLQAMAPEEILQEQQRLLAQLDPSLVAFLRSHSHTQEQTGETASEEQRPGGPSANVTKEEPLMSAFASEPRKRDKLEPEAPALALPVTPQKEWLHMDTVELEKLHWTQDLPPVRRQQTQERMQARFSLQGELLAPDVDLPTHLGLHHHGEEAERAGYSLQELFHLTRSQVSQQRALALHVLAQVISRAQAGEFGDRLAGSVLSLLLDAGFLFLLRFSLDDRVDGVIATAIRALRALLVAPGDEELLDSTFSWYHGALTFPLMPSQEDKEDEDEDEECPAGKAKRKSPEEESRPPPDLARHDVIKGLLATSLLPRLRYVLEVTYPGPAVVLDILAVLIRLARHSLESATRVLECPRLIETIVREFLPTSWSPVGAGPTPSLYKVPCATAMKLLRVLASAGRNIAARLLSSFDLRSRLCRIIAEAPQELALPPEEAEMLSTEALRLWAVAASYGQGGYLYRELYPVLMRALQVVPRELSTHPPQPLSMQRIASLLTLLTQLTLAAGSTPAETISDSAEASLSATPSLVTWTQVSGLQPLVEPCLRQTLKLLSRPEMWRAVGPVPVACLLFLGAYYQAWSQQPSSCPEDWLQDMQRLSEELLLPLLSQPTLGSLWDSLRHCSLLCNPLSCVPALEAPPSLVSLGCSGGCPRLSLAGSASPFPFLTALLSLLNTLAQIHKGLCGQLAAILAAPGLQNYFLQCVAPGAAPHLTPFSAWALRHEYHLQYLALALAQKAAALQPLPATHAALYHGMALALLSRLLPGSEYLTHELLLSCVFRLEFLPERTSGGPEAADFSDQLSLGSSRVPRCGQGTLLAQACQDLPSIRNCYLTHCSPARASLLASQALHRGELQRVPTLLLPMPTEPLLPTDWPFLPLIRLYHRASDTPSGLSPTDTMGTAMRVLQWVLVLESWRPQALWAVPPAARLARLMCVFLVDSELFRESPVQHLVAALLAQLCQPQVLPNLNLDCRLPGLTSFPDLYANFLDHFEAVSFGDHLFGALVLLPLQRRFSVTLRLALFGEHVGALRALSLPLTQLPVSLECYTVPPEDNLALLQLYFRTLVTGALRPRWCPVLYAVAVAHVNSFIFSQDPQSSDEVKAARRSMLQKTWLLADEGLRQHLLHYKLPNSTLPEGFELYSQLPPLRQHYLQRLTSTVLQNGVSET

- binding: binds
B3: Isoform 2 of Melanoma-associated antigen D1 (protein, UniProt Q9Y5V3-2 1-834)
chain: MAQKMDCGAGLLGFQNPDACRAVCHPLPQPPASTLPLSAFPTLCDPPYSQLRDPPAVLSCYCTPLGASPAPAEASVEDSALLMQTLMEAIQISEAPPTNQATAAASPQSSQPPTANEMADIQVSAAAARPKSAFKVQNATTKGPNGVYDFSQAHNAKDVPNTQPKAAFKSQNATPKGPNAAYDFSQAATTGELAANKSEMAFKAQNATTKVGPNATYNFSQSLNANDLANSRPKTPFKAWNDTTKAPTADTQTQNVNQAKMATSQADIETDPGISEPDGATAQTSADGSQAQNLESRTIIRGKRTRKINNLNVEENSSGDQRRAPLAAGTWRSAPVPVTTQNPPGAPPNVLWQTPLAWQNPSGWQNQTARQTPPARQSPPARQTPPAWQNPVAWQNPVIWPNPVIWQNPVIWPNPIVWPGPVVWPNPLAWQNPPGWQTPPGWQTPPGWQGPPDWQGPPDWPLPPDWPLPPDWPLPTDWPLPPDWIPADWPIPPDWQNLRPSPNLRPSPNSRASQNPGAAQPRDVALLQERANKLVKYLMLKDYTKVPIKRSEMLRDIIREYTDVYPEIIERACFVLEKKFGIQLKEIDKEEHLYILISTPESLAGILGTTKDTPKLGLLLVILGVIFMNGNRASEAVLWEALRKMGLRPGVRHPLLGDLRKLLTYEFVKQKYLDYRRVPNSNPPEYEFLWGLRSYHETSKMKVLRFIAEVQKRDPRDWTAQFMEAADEALDALDAAAAEAEARAEARTRMGIGDEAVSGPWSWDDIEFELLTWDEEGDFGDPWSRIPFTFWARYHQNARSRFPQTFAGPIIGPGGTASANFAANFGAIGFFWVE
